Experimental data reported in patent US8263401B2, “Adenylyl cyclase antibodies, compositions and uses thereof” (University of Medicine and Dentistry of New Jersey, priority 2005, dated 2012).
For at least one compound, name, drawing or mass did not settle the structure.

Columns and labels:
[1] = system: AC5KO and WT mice; experiment: Echocardiography in anesthetized mice during i.v. ISO infusion, with co-administered Ach; type: in vivo, mouse
Protocol: Adenylyl cyclase 5 knockout (AC5KO) mice (6.4±0.2 month old, n=6) and wild type (WT) mice (6.7±0.1 month old, n=6) of either sex from the same genetic background as the transgenic mice were used for the physiological studies. Measurements of LV ejection fraction (LVEF) were performed as described previously (Iwase, M., Uechi, M., Vatner, D. E., Asai, K., Shannon, R. P., Kudej, R. K., Wagner, T. E., Wight, D.C., Patrick, T. A., Ishikawa, Y., et al. (1997), Am. J. Physiol. 272:H585-589.). Briefly, after determination of body weight, mice were anesthetized with ketamine (0.065 mg/g), acepromazine (0.002 mg/g), and xylazine (0.013 mg/g) injected intraperitoneally and were allowed to breathe spontaneously. Echocardiography was performed using ultrasonography (Sequoia C256; Acuson Corporation, Mountain View, Calif., USA). A dynamically focused 15-MHz annular array transducer was applied from below, using a warmed saline bag as a standoff. M-mode echocardiographic measurements of the LV were performed at baseline and during intravenous infusion of ISO (0.005, 0.01, 0.02, and 0.04 μg/kg/min i.v. for 5 minutes each)(Abbott Laboratories Inc, North Chicago, Ill., USA) using an infusion pump (PHD 2000; Harvard Apparatus, Inc., Holliston, Mass., USA). The total amount of the infusion volume was <100 μL in each mouse. […] To examine the responses to a muscarinic agonist, acetylcholine (Ach) was co-administered intraperitoneally (i.p. 25 mg/kg) during i.v. infusion of ISO (0.04 μg/kg/min).

[2] = system: primary cultured striatal neurons; experiment: cAMP accumulation in primary cultured striatal neurons; type: cell-based, mouse; details: neuronal cells from WT mice; forskolin 50 micro M, dopamine 100 micro M (FIG. 9)
Protocol: Reaction with various agonists in the presence of a phosphodiesterase inhibitor proceed for 10 minutes and are stopped by the addition of ice-cold 2.5% perchloric acid, followed by sonication and centrifugation. Pellets are dissolved in 0.1 N NaOH for protein measurements and the supernatants are subject to cAMP assay by radioimmunoassay after neutralization. To examine whether AC5 plays a major role in regulating cAMP production, receptor-stimulated cAMP production and its effect in the striatum was measured. The rationale for this study is as follows. Changes in cAMP signal upon receptor stimulation can be easily determined by measuring AC activity in intact neuronal cells because the striatal membrane preparations present a few problems. Determination of basal, GTPγS— and forskolin-stimulated AC activity may be readily done while receptor-regulated AC activity, both stimulatory and inhibitory, is not easy in the striatum. This is, at least partially, due to less abundant receptor expression and the disruption of the receptor/G protein/AC coupling during the process of membrane homogenization of the striatum. Therefore, the effect of receptor stimulation and its sequential changes in AC activity and further downstream events including the process of phosphorylation/dephosphorylation may be best examined using cultured cells or even the whole body. […]

Compound	HR in the presence of ISO ([1]; AC5KO)	reduction in EF induced by Ach in the presence of ISO ([1]; AC5KO)	HR in the presence of ISO ([1]; WT)	reduction in EF induced by Ach in the presence of ISO ([1]; WT)	levels of cAMP compared to untreated cells [2]
CC(=O)OCC[N+](C)(C)C [Ach, acetylcholine]	not in AC5KO	neither the reduction in EF	reduced HR	pronounced	–
C=C[C@@]1(C)CC(=O)[C@]2(O)[C@@]3(C)[C@@H](O)CCC(C)(C)[C@@H]3[C@H](O)[C@H](OC(C)=O)[C@@]2(C)O1 [forskolin]	–	–	–	–	effective at increasing the levels of cAMP significantly
